SMILES strings stand for the structures.

The text below walks through data of paper PMC6156755, “Using Human Plasma as an Assay Medium in Caco-2 Studies Improves Mass Balance for Lipophilic Compounds” (Pharmaceutical Research, 2018).

A short description of data set [1]: Human plasma protein binding (ultracentrifugation or rapid equilibrium dialysis). In kind it is in vitro ADME. As to conditions: pH 7.4; neat human plasma, 37°C, concentration comparable to Caco-2 assay; read-out: fu (fraction unbound in plasma). As to the method: Binding was assessed using one of two methods: ultracentrifugation ([31]) using neat human plasma or rapid equilibrium dialysis (RED) using either neat or diluted plasma. […] To allow analysis with a single calibration curve, the total plasma and protein-free supernatant samples were ‘matrix-matched’ by taking aliquots of protein-free supernatant samples and adding to fresh tubes containing an equal volume of blank plasma, or taking aliquots of the total plasma samples and adding to fresh tubes containing an equal volume of Dulbecco’s phosphate-buffered saline (DPBS). […]
For the more lipophilic compounds with potential for very high binding, the RED method was used with diluted plasma to increase the chance of detecting concentrations in the dialysate samples. […] The binding in neat plasma was then calculated by correcting for the dilution as described below.
For binding measurements in neat plasma by ultracentrifugation, the fraction unbound (fu) was calculated from the ratio of the average unbound concentration in protein free supernate (Cunbound) to the average total concentration in non-centrifuged plasma (Ctotal). The standard deviation (SD) for the fu value was calculated using the propagation of errors approach as described previously ([33]). […]
For RED binding assessments using 10% plasma, the fu − diluted for individual dialysis units was calculated in the same way as described above.

The nature of data set [2]: in vitro. As to conditions: human, Caco-2, pH 7.4, Papp A-B.
Data set [3] in a line: Caco-2 permeability assay with pH 7.4 buffer or human plasma in both chambers. As to conditions: human, Caco-2, pH 7.4, Papp A-B, buffer pH 7.4 in both chambers.
Data set [4] relates to Caco-2 cell monolayer. Described as above. As to conditions: both directions (where assessed) and both media.
Data set [5] has as its system Caco-2 cell monolayer. As to conditions: human, Caco-2, pH 7.4.

For `CC(C)NCC(O)COc1ccc(CC(N)=O)cc1` (centres unmarked) [Atenolol, atenolol], in data set [1], the fraction unbound is 0.77. For the same compound, the values for the Papp A→B in data set [2] and in data set [3] were 1.1 ± 0.1 ×10⁻⁶ cm/s and 0.39 ± 0.051 ×10⁻⁶ cm/s, respectively. Besides, the Mass balance in data set [4] is on record as > 80%.

Regarding `COc1ccc2cc([C@H](C)C(=O)O)ccc2c1` [Naproxen, naproxen], the fraction unbound in data set [1] was 0.018. Besides, the “Increase in Papp using plasma compared to buffer” value in data set [5] was 2-3 fold. In addition, the Papp A→B in data set [2] was 130 ± 36 ×10⁻⁶ cm/s; in data set [3] it was 40 ± 7 ×10⁻⁶ cm/s.
